According to publication PMC2993942:
These are yes or no findings as the source states them, for the method shown. In cells and extracts the contact can be indirect.

Amino acid sequences for entries named in this document (tags omitted). A change or cut given only in a name is not applied to a line headed by its entry. Chains listed by the source or under a name are the forms on record and can include a tag or linker.
UniProt Q16665: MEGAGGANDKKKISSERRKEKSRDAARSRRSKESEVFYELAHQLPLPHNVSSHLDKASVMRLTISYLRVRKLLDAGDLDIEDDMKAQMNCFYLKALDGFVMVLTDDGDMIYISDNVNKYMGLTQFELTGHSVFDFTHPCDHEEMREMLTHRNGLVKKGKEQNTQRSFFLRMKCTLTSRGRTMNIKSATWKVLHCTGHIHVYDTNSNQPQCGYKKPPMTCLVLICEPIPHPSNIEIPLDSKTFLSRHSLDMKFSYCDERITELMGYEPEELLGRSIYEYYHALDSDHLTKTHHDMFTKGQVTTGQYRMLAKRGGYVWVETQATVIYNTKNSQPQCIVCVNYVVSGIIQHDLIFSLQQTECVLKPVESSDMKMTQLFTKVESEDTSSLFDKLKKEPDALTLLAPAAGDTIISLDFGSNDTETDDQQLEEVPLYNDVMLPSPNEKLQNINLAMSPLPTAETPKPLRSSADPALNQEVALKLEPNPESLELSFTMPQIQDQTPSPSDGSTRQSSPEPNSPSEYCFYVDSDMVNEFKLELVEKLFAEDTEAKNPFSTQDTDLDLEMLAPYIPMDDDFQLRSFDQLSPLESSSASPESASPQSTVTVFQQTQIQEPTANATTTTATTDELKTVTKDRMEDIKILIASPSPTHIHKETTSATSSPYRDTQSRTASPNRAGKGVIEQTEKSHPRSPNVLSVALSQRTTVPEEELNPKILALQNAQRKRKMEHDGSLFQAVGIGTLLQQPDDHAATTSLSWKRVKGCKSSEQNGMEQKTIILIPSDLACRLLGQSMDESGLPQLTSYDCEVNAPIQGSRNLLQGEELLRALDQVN
CHIP K30A c-myc (Q9UNE7-1, form named): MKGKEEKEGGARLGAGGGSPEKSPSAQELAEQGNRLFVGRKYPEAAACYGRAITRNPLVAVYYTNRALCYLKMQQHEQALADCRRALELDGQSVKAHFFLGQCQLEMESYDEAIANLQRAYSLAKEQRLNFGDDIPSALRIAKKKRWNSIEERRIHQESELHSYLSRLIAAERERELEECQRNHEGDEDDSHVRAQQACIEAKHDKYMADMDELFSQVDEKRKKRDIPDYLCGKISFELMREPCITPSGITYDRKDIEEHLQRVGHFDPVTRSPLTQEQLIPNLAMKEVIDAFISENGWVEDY

Molecular target: Hypoxia-inducible factor-1 alpha (HIF-1α) (human (endogenous in ARPE-19)) (UniProt Q16665)
Assay: co-IP; endogenous HIF-1α immunoprecipitated with anti-HIF-1α from lysates (0.5% NP-40, 150 mM NaCl, pH 7.4) of ARPE-19 cells transfected with c-myc CHIP constructs; cells treated with MG132 (20 µM) with or without MGO (3 mM, 40 or 70 minutes); blot for c-myc

- binding: no binding
Substance: CHIP K30A c-myc (from UniProt Q9UNE7-1 1-303) (enzyme)
